Assay results from article doi:10.1101/410092.
Where two headings read alike, the source gives them in different places. These are yes or no findings as the source states them, for the method shown. In cells and extracts the contact can be indirect. Some results given as binding are weak or reduced against the parent protein; the word gives no strength. Tags and fused reporters may be left off the sequences shown.

T1: TLR9, HA-tagged (UniProt Q9EQU3)
T1 sequence: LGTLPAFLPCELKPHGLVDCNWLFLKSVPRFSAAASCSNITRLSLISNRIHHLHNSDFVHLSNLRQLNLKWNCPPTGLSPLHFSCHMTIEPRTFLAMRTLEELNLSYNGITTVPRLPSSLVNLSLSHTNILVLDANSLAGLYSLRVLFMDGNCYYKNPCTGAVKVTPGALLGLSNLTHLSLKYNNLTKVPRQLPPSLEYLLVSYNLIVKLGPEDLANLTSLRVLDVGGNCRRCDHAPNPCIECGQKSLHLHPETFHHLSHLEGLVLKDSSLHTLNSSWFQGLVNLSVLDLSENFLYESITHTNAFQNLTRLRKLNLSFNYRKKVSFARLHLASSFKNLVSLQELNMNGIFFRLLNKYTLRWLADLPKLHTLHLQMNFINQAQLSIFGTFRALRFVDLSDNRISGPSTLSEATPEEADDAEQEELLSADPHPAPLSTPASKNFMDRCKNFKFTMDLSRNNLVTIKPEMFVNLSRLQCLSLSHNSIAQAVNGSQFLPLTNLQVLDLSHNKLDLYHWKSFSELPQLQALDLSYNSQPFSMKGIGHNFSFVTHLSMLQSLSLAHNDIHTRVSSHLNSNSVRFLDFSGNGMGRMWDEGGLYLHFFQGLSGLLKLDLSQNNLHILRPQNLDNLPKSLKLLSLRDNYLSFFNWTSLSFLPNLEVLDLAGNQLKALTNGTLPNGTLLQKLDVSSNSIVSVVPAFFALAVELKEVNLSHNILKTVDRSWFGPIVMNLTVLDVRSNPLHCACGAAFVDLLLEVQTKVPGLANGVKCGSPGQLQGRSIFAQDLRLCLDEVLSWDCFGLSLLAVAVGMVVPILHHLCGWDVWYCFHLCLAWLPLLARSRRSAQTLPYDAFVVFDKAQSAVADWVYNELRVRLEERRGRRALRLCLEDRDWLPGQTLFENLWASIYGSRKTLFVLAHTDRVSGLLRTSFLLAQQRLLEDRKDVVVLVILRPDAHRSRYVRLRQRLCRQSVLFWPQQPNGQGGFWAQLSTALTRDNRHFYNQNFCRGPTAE

T2: Unc93b1^S282A, 3xFLAG-tagged (mouse) (UniProt Q8VCW4)
T2 sequence: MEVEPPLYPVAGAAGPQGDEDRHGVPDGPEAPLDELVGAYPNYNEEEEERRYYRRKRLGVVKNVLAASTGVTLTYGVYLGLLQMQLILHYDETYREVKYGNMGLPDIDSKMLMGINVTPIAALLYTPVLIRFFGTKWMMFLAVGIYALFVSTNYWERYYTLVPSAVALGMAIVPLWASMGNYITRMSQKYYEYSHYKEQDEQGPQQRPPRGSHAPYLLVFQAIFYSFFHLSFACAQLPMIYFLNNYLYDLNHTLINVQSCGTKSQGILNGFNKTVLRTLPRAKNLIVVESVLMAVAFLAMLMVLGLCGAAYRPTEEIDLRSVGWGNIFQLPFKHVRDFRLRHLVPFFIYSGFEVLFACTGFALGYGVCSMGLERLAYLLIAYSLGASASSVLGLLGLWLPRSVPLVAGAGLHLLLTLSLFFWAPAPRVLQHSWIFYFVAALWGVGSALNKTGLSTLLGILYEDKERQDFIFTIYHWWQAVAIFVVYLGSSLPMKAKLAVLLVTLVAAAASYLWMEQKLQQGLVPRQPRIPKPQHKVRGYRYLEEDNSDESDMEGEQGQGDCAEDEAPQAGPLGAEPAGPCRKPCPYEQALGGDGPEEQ

T3: Unc93b1 wildtype, 3xFLAG-tagged (mouse) (UniProt Q8VCW4)
T3 sequence: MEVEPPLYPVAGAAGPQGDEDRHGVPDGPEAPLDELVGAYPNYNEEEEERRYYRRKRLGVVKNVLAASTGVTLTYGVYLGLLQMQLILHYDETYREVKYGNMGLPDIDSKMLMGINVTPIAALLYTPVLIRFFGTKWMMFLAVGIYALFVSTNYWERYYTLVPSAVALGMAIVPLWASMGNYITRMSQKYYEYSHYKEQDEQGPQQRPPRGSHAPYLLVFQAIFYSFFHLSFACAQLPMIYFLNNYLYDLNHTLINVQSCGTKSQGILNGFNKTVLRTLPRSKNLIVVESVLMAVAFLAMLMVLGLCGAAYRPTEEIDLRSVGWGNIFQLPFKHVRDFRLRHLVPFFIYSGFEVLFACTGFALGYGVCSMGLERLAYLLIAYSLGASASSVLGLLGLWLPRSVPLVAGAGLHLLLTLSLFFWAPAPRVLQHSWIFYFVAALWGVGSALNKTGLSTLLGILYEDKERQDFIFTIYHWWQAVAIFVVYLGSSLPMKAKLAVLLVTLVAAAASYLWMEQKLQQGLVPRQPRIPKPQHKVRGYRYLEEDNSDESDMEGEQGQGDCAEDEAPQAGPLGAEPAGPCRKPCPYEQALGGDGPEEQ

T4: Unc93b1^SKN (SKN to AAA at residues 282-284), 3xFLAG-tagged (mouse) (UniProt Q8VCW4)
T4 sequence: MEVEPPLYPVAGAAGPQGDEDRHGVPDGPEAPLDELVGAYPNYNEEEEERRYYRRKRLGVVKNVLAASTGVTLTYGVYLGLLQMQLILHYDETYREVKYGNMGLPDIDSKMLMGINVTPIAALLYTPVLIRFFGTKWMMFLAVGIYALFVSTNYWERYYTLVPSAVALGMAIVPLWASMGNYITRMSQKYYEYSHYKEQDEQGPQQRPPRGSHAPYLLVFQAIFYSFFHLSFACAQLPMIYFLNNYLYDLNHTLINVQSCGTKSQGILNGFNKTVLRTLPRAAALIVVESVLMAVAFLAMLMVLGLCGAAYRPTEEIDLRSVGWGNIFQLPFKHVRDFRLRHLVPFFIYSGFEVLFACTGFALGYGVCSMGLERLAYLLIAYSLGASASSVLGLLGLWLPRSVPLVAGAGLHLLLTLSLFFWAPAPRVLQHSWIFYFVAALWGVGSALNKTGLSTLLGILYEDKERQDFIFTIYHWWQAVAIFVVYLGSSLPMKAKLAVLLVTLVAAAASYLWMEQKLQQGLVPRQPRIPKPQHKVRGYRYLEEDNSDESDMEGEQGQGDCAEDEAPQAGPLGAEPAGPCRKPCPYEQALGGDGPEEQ


Tests used:
Test in all cases: co-IP
TLR9, HA-tagged [1] = target: T1, TLR9, HA-tagged
TLR9, HA-tagged [2] = target: T1, TLR9, HA-tagged; remark: listed apart in the source
TLR9, HA-tagged [3] = target: T1, TLR9, HA-tagged; remark: listed apart in the source
TLR9, HA-tagged [4] = target: T1, TLR9, HA-tagged; remark: listed apart in the source
[5] = target: T2, Unc93b1^S282A, 3xFLAG-tagged (mouse)
[6] = target: T3, Unc93b1 wildtype, 3xFLAG-tagged (mouse)
[7] = target: T4, Unc93b1^SKN (SKN to AAA at residues 282-284), 3xFLAG-tagged (mouse)

Binder | binding (TLR9, HA-tagged [1]) | binding (TLR9, HA-tagged [2]) | binding (TLR9, HA-tagged [3]) | binding (TLR9, HA-tagged [4]) | binding [5] | binding [6] | binding [7]
Unc93b1^SKN (SKN to AAA at residues 282-284), 3xFLAG-tagged (protein, UniProt Q8VCW4 1-598) MEVEPPLYPVAGAAGPQGDEDRHGVPDGPEAPLDELVGAYPNYNEEEEERRYYRRKRLGVVKNVLAASTGVTLTYGVYLGLLQMQLILHYDETYREVKYGNMGLPDIDSKMLMGINVTPIAALLYTPVLIRFFGTKWMMFLAVGIYALFVSTNYWERYYTLVPSAVALGMAIVPLWASMGNYITRMSQKYYEYSHYKEQDEQGPQQRPPRGSHAPYLLVFQAIFYSFFHLSFACAQLPMIYFLNNYLYDLNHTLINVQSCGTKSQGILNGFNKTVLRTLPRAAALIVVESVLMAVAFLAMLMVLGLCGAAYRPTEEIDLRSVGWGNIFQLPFKHVRDFRLRHLVPFFIYSGFEVLFACTGFALGYGVCSMGLERLAYLLIAYSLGASASSVLGLLGLWLPRSVPLVAGAGLHLLLTLSLFFWAPAPRVLQHSWIFYFVAALWGVGSALNKTGLSTLLGILYEDKERQDFIFTIYHWWQAVAIFVVYLGSSLPMKAKLAVLLVTLVAAAASYLWMEQKLQQGLVPRQPRIPKPQHKVRGYRYLEEDNSDESDMEGEQGQGDCAEDEAPQAGPLGAEPAGPCRKPCPYEQALGGDGPEEQ | binds | – | – | – | – | – | –
Unc93b1^S282A, 3xFLAG-tagged (protein, UniProt Q8VCW4 1-598) MEVEPPLYPVAGAAGPQGDEDRHGVPDGPEAPLDELVGAYPNYNEEEEERRYYRRKRLGVVKNVLAASTGVTLTYGVYLGLLQMQLILHYDETYREVKYGNMGLPDIDSKMLMGINVTPIAALLYTPVLIRFFGTKWMMFLAVGIYALFVSTNYWERYYTLVPSAVALGMAIVPLWASMGNYITRMSQKYYEYSHYKEQDEQGPQQRPPRGSHAPYLLVFQAIFYSFFHLSFACAQLPMIYFLNNYLYDLNHTLINVQSCGTKSQGILNGFNKTVLRTLPRAKNLIVVESVLMAVAFLAMLMVLGLCGAAYRPTEEIDLRSVGWGNIFQLPFKHVRDFRLRHLVPFFIYSGFEVLFACTGFALGYGVCSMGLERLAYLLIAYSLGASASSVLGLLGLWLPRSVPLVAGAGLHLLLTLSLFFWAPAPRVLQHSWIFYFVAALWGVGSALNKTGLSTLLGILYEDKERQDFIFTIYHWWQAVAIFVVYLGSSLPMKAKLAVLLVTLVAAAASYLWMEQKLQQGLVPRQPRIPKPQHKVRGYRYLEEDNSDESDMEGEQGQGDCAEDEAPQAGPLGAEPAGPCRKPCPYEQALGGDGPEEQ | binds | binds | binds | binds | – | – | –
TLR7, HA-tagged (receptor, UniProt P58681 27-1050) FRWFPKTLPCEVKVNIPEAHVIVDCTDKHLTEIPEGIPTNTTNLTLTINHIPSISPDSFRRLNHLEEIDLRCNCVPVLLGSKANVCTKRLQIRPGSFSGLSDLKALYLDGNQLLEIPQDLPSSLHLLSLEANNIFSITKENLTELVNIETLYLGQNCYYRNPCNVSYSIEKDAFLVMRNLKVLSLKDNNVTAVPTTLPPNLLELYLYNNIIKKIQENDFNNLNELQVLDLSGNCPRCYNVPYPCTPCENNSPLQIHDNAFNSLTELKVLRLHSNSLQHVPPTWFKNMRNLQELDLSQNYLAREIEEAKFLHFLPNLVELDFSFNYELQVYHASITLPHSLSSLENLKILRVKGYVFKELKNSSLSVLHKLPRLEVLDLGTNFIKIADLNIFKHFENLKLIDLSVNKISPSEESREVGFCPNAQTSVDRHGPQVLEALHYFRYDEYARSCRFKNKEPPSFLPLNADCHIYGQTLDLSRNNIFFIKPSDFQHLSFLKCLNLSGNTIGQTLNGSELWPLRELRYLDFSNNRLDLLYSTAFEELQSLEVLDLSSNSHYFQAEGITHMLNFTKKLRLLDKLMMNDNDISTSASRTMESDSLRILEFRGNHLDVLWRAGDNRYLDFFKNLFNLEVLDISRNSLNSLPPEVFEGMPPNLKNLSLAKNGLKSFFWDRLQLLKHLEILDLSHNQLTKVPERLANCSKSLTTLILKHNQIRQLTKYFLEDALQLRYLDISSNKIQVIQKTSFPENVLNNLEMLVLHHNRFLCNCDAVWFVWWVNHTDVTIPYLATDVTCVGPGAHKGQSVISLDLYTCELDLTNLILFSVSISSVLFLMVVMTTSHLFFWDMWYIYYFWKAKIKGYQHLQSMESCYDAFIVYDTKNSAVTEWVLQELVAKLEDPREKHFNLCLEERDWLPGQPVLENLSQSIQLSKKTVFVMTQKYAKTESFKMAFYLSHQRLLDEKVDVIILIFLEKPLQKSKFLQLRKRLCRSSVLEWPANPQAHPYFWQCLKNALTTDNHVAYSQMFKETV | – | – | – | – | binds | binds | binds
